± gives the standard deviation of the averaged measurements. This is one part of the list. Values are raw readings; no control value is given beside them.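 In this assay, LPS from bacteria induces microglia-mediated neuronal death in a neuron–microglia–astrocyte co-culture, a model of inflammatory neurodegeneration. Compounds were compared against same-plate DMSO vehicle wells, with the SYK inhibitor BAY61-3606 as reference neuroprotective control.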

The first assay relates to rat primary cerebellar neuron-glia coculture. Put plainly: live neuron count (NeuO+) per image field (cells per field); higher = more surviving neurons. The following applies: LPS 0 ng/mL; 1 µM; treatment time 3 days. How it is done:
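Primary rat (P3-7) cerebellar neuron-glia cocultures in 384-well plates were treated at DIV7 with 1 uM compound, then with or without 100 ng/mL LPS 30 min later, for 3 days. At DIV10 live cells were stained with Hoechst 33342, NeuO (live neurons), IB4-AF594 (microglia) and DRAQ7 (necrotic cells) and imaged at 10x (4 fields per well, IN Cell Analyzer 6000). Cells were classified with Cellpose/CellProfiler plus a Random Trees classifier. Values are per-well mean counts per image field (raw, not min-max normalised) and the median microglial FormFactor per image. Three technical replicates per repeat across 4 biological repeats; DMSO and BAY61-3606 serve as controls.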
Regarding `Clc1ccc(CNc2nc3ccccc3[nH]2)cc1Cl`, the live neuron count is 1550 ± 330.
The same measure, in the same setting: as for `CCCCN1C[C@H](O)[C@@H](O)[C@H](O)[C@H]1CO`, the figure is 2620 ± 420; as for `CC(C)Oc1ccc(-c2cnc3c(-c4ccnc5ccccc45)cnn3c2)cc1`, 2550 ± 440; as for `COc1ccc2c(c1)[C@]1(C[C@H]1c1ccc3c(/C=C/c4ccc(CN5C[C@@H](C)O[C@@H](C)C5)cc4)n[nH]c3c1)C(=O)N2`, 2630 ± 400.
The same measure, in the same setting: as for `Cc1[nH]n(-c2ccccc2)c(=O)c1C1(C(F)(F)F)C(=O)N(c2cccc(Cl)c2)C2=C1C(=O)CC(C)(C)C2` (stereo not given), the figure is 2540 ± 490; as for `CC[C@@H]1[C@@H](C)[C@H](Nc2ccccc2)c2ccccc2N1C(=O)c1ccc(Br)cc1`, 2470 ± 780; as for `CNCCC(Oc1ccc(C(F)(F)F)cc1)c1ccccc1` (stereo not given), 1990 ± 360.
Still for that read-out and setting: as for `CCCC[n+]1c(/C=C/c2ccc(N(C)C)cc2)sc2ccccc21`, the figure is 458 ± 390.
For `NC(=O)c1ccc(N(C(N)=O)c2c(F)cccc2F)nc1-c1ccc(F)cc1F`, the live neuron count was found to be 2560 ± 500.
For `COc1cc2nc(N3CCN(C(=O)C4COc5ccccc5O4)CC3)nc(N)c2cc1OC` (stereo not given), the live neuron count stood at 2460 ± 490.
Same read-out and setting: the result for `Cn1ncnc1COc1nn2c(-c3cc(F)ccc3F)nnc2cc1C(C)(C)C` reads 2630 ± 470; that for `O=C(CN1C(=O)C2(CCCC2)NC[C@H]1c1cc(F)cc(F)c1)Nc1ccc2c(c1)C[C@@]1(C2)C(=O)Nc2ncccc21`, 2380 ± 700; that for `CC(=O)Nc1cccc2c1c(Sc1ccc(Cl)cc1)c(C)n2CC(=O)O`, 2550 ± 660.
On the same count and under the same terms, as for `Cc1cncn1CCCn1c(=S)[nH]c2ccccc2c1=O`, the figure is 2720 ± 490.
`NC(=O)c1ccc(-c2nc(-c3ccccn3)c(-c3ccc4c(c3)OCO4)[nH]2)cc1` yielded a live neuron count of 2640 ± 470.
On the same count and under the same terms, the result for `O=C(NCCCNc1nc(Nc2cccc(NC(=O)N3CCCC3)c2)ncc1I)c1cccs1` reads 2570 ± 470; that for `O=C(N1CCCCC1c1ccccc1)n1cc(-c2ccc(-c3cccc(CO)c3)cc2)nn1` (stereo not given), 2520 ± 370.
`CC(=O)O[C@]1(C(C)=O)CC[C@H]2[C@@H]3C[C@H](C)C4=CC(=O)CC[C@]4(C)[C@H]3CC[C@@]21C`: the live neuron count came to 2690 ± 470.
Same read-out and setting: as for `COc1cc2c(NC3CCN(C(C)C)CC3)nc(C3CCCCC3)nc2cc1OCCCN1CCCC1`, the figure is 2460 ± 440.
Still for that read-out and setting: as for `O=C(O)/C=C/c1ccc(O)c(O)c1`, the figure is 1040 ± 440.

The same assay, now with this note: LPS 100 ng/mL; 1 µM; treatment time 3 days.
For `Clc1ccc(CNc2nc3ccccc3[nH]2)cc1Cl`, the live neuron count was found to be 451 ± 360.
On the same count and under the same terms, as for `CCCCN1C[C@H](O)[C@@H](O)[C@H](O)[C@H]1CO`, the figure is 395 ± 490; as for `CC(C)Oc1ccc(-c2cnc3c(-c4ccnc5ccccc45)cnn3c2)cc1`, 405 ± 410.
`COc1ccc2c(c1)[C@]1(C[C@H]1c1ccc3c(/C=C/c4ccc(CN5C[C@@H](C)O[C@@H](C)C5)cc4)n[nH]c3c1)C(=O)N2` registered a live neuron count of 295 ± 350.
The same measure, in the same setting: the result for `Cc1[nH]n(-c2ccccc2)c(=O)c1C1(C(F)(F)F)C(=O)N(c2cccc(Cl)c2)C2=C1C(=O)CC(C)(C)C2` (stereo not given) reads 353 ± 520; that for `CC[C@@H]1[C@@H](C)[C@H](Nc2ccccc2)c2ccccc2N1C(=O)c1ccc(Br)cc1`, 275 ± 250.
Still for that read-out and setting: as for `CNCCC(Oc1ccc(C(F)(F)F)cc1)c1ccccc1` (stereo not given), the figure is 1970 ± 600; as for `CCCC[n+]1c(/C=C/c2ccc(N(C)C)cc2)sc2ccccc21`, 643 ± 220; as for `NC(=O)c1ccc(N(C(N)=O)c2c(F)cccc2F)nc1-c1ccc(F)cc1F`, 694 ± 940.
Same read-out and setting: the result for `COc1cc2nc(N3CCN(C(=O)C4COc5ccccc5O4)CC3)nc(N)c2cc1OC` (stereo not given) reads 2370 ± 570; that for `Cn1ncnc1COc1nn2c(-c3cc(F)ccc3F)nnc2cc1C(C)(C)C`, 2460 ± 510.
`O=C(CN1C(=O)C2(CCCC2)NC[C@H]1c1cc(F)cc(F)c1)Nc1ccc2c(c1)C[C@@]1(C2)C(=O)Nc2ncccc21`: the live neuron count was 315 ± 360.
Still for that read-out and setting: the result for `CC(=O)Nc1cccc2c1c(Sc1ccc(Cl)cc1)c(C)n2CC(=O)O` reads 1630 ± 1000.
Consider `Cc1cncn1CCCn1c(=S)[nH]c2ccccc2c1=O`, for which the live neuron count stood at 343 ± 490.
The same measure, in the same setting: the result for `NC(=O)c1ccc(-c2nc(-c3ccccn3)c(-c3ccc4c(c3)OCO4)[nH]2)cc1` reads 67.3 ± 48; that for `O=C(NCCCNc1nc(Nc2cccc(NC(=O)N3CCCC3)c2)ncc1I)c1cccs1`, 1790 ± 640; that for `O=C(N1CCCCC1c1ccccc1)n1cc(-c2ccc(-c3cccc(CO)c3)cc2)nn1` (stereo not given), 292 ± 340.
Still for that read-out and setting: as for `CC(=O)O[C@]1(C(C)=O)CC[C@H]2[C@@H]3C[C@H](C)C4=CC(=O)CC[C@]4(C)[C@H]3CC[C@@]21C`, the figure is 2450 ± 830; as for `COc1cc2c(NC3CCN(C(C)C)CC3)nc(C3CCCCC3)nc2cc1OCCCN1CCCC1`, 323 ± 290; as for `O=C(O)/C=C/c1ccc(O)c(O)c1`, 459 ± 300.

These data come from the supplement of paper PMC10973195.
